We go through one substance from article doi:10.1101/2020.08.09.242891 (bioRxiv, 2020).

Amino acid sequences for entries named in this document (tags omitted).
UniProt Q9HC52: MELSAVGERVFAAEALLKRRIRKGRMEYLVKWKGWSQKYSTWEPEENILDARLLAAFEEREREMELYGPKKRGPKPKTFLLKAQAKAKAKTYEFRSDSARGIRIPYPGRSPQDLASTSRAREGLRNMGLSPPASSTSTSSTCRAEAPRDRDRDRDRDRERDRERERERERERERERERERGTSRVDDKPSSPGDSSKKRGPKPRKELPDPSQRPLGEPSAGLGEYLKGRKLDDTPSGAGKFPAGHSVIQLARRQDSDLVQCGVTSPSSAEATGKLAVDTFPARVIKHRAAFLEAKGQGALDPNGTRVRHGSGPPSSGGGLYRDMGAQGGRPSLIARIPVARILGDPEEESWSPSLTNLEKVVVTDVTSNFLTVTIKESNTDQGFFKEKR

Results are given in words; binding and its absence hold for the method and conditions named. In cells and extracts the contact can be indirect. These calls come from enrichment with a bait or labelling near it, and not all partners need be listed. Where a sequence is shown, tags or fusion partners need not be part of it.

In the test the target is T1, FLAG-PKD1 (protein kinase D1) (UniProt Q15139).
T1 sequence: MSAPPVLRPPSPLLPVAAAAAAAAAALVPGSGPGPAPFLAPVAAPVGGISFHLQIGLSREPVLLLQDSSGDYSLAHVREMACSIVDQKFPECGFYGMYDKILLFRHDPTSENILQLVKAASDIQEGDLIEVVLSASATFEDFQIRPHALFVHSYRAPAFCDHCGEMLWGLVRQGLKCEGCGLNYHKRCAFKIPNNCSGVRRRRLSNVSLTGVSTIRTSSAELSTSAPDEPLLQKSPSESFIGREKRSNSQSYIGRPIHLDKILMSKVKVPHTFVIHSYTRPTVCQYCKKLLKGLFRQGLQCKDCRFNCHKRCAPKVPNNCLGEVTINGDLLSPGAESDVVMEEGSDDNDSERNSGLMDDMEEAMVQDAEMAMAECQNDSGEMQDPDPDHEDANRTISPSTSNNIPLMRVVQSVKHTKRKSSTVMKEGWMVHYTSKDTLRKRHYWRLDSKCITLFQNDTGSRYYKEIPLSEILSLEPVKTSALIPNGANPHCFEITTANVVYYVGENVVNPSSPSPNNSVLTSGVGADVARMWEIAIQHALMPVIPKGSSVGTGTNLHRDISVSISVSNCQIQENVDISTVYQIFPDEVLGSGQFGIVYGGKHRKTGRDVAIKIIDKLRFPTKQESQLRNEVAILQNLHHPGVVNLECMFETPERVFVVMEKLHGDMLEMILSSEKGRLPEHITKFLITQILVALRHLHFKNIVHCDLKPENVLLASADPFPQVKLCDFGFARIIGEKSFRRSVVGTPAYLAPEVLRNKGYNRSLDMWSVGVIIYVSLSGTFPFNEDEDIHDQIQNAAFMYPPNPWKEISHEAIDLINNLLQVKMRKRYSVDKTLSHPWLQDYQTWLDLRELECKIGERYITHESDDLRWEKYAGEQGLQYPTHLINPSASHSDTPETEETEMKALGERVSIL
The test is described as follows: affinity purification with mass spectrometry.

Turning to “endogenous CBX8 (chromobox 8) (from UniProt Q9HC52 1-389)”, the binding entry is reported as “binds”.
